For at least one entry, the source does not settle the construct or the ends of the probe. Negatives hold for the conditions tested.
System: AtrERF001 (Akebia trifoliata)
Assay: EMSA
Details: text mentions a 'site mutation assay' but no mutant probe is described; LightShift Chemiluminescent EMSA kit per manufacturer; unlabeled competitor 10x, 50x; native PAGE; pH and temperature not stated; recombinant protein; label: 5' biotin

| Sequence | binding result |
| --- | --- |
| AATTTGAGTCGGCATTTTTT (double strand) [AtrACO1 promoter probe (FP1/RP1)] | no binding |
| TTCCAAGCCGACATGGCCGA (double strand) [AtrPE promoter probe (FP2/RP2)] | no binding |
